From paper PMC3419646 come the findings set out here.

The chains behind the UniProt entries cited, without tags or fusion partners. Residues count along the entry.
UniProt P05067, residues 672-713: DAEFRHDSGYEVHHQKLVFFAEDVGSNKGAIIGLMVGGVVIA
UniProt P07825: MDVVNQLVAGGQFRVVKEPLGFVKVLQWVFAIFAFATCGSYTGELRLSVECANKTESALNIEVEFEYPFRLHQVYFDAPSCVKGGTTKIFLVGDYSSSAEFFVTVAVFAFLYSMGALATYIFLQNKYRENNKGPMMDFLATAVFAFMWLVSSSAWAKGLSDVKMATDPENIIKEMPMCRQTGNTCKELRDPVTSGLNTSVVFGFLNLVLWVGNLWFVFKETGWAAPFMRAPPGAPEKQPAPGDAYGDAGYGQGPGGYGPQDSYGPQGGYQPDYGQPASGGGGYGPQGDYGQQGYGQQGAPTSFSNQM

The experiment has as its target amyloid-β peptide (Aβ42) (UniProt P05067). Nature of the experiment: pull-down; affinity column of Aβ42; hippocampal extracts passed over it; eluted fraction probed by western blot with antibodies against synaptic proteins; only the target purified. Background: Immunoblotting shows a protein as a band on a membrane.

No constants are given. Whether binding was seen depends on the method and setting. In cells and extracts the contact can be indirect. Some results given as binding are weak or reduced against the parent protein; the word gives no strength.

“Synaptophysin (from UniProt P07825 1-307)”: the binding result is on record as “binds”.
